Laboratory results reported in paper doi:10.1101/2022.10.01.510479.
These are yes or no findings as the source states them, for the method shown. Binding seen in cells or lysates may run through a third protein. Some entries that bind do so weakly or less than the wild type.

Sequences of proteins named here, by UniProt entry; tags and fusion partners are left off.
UniProt Q9BX84: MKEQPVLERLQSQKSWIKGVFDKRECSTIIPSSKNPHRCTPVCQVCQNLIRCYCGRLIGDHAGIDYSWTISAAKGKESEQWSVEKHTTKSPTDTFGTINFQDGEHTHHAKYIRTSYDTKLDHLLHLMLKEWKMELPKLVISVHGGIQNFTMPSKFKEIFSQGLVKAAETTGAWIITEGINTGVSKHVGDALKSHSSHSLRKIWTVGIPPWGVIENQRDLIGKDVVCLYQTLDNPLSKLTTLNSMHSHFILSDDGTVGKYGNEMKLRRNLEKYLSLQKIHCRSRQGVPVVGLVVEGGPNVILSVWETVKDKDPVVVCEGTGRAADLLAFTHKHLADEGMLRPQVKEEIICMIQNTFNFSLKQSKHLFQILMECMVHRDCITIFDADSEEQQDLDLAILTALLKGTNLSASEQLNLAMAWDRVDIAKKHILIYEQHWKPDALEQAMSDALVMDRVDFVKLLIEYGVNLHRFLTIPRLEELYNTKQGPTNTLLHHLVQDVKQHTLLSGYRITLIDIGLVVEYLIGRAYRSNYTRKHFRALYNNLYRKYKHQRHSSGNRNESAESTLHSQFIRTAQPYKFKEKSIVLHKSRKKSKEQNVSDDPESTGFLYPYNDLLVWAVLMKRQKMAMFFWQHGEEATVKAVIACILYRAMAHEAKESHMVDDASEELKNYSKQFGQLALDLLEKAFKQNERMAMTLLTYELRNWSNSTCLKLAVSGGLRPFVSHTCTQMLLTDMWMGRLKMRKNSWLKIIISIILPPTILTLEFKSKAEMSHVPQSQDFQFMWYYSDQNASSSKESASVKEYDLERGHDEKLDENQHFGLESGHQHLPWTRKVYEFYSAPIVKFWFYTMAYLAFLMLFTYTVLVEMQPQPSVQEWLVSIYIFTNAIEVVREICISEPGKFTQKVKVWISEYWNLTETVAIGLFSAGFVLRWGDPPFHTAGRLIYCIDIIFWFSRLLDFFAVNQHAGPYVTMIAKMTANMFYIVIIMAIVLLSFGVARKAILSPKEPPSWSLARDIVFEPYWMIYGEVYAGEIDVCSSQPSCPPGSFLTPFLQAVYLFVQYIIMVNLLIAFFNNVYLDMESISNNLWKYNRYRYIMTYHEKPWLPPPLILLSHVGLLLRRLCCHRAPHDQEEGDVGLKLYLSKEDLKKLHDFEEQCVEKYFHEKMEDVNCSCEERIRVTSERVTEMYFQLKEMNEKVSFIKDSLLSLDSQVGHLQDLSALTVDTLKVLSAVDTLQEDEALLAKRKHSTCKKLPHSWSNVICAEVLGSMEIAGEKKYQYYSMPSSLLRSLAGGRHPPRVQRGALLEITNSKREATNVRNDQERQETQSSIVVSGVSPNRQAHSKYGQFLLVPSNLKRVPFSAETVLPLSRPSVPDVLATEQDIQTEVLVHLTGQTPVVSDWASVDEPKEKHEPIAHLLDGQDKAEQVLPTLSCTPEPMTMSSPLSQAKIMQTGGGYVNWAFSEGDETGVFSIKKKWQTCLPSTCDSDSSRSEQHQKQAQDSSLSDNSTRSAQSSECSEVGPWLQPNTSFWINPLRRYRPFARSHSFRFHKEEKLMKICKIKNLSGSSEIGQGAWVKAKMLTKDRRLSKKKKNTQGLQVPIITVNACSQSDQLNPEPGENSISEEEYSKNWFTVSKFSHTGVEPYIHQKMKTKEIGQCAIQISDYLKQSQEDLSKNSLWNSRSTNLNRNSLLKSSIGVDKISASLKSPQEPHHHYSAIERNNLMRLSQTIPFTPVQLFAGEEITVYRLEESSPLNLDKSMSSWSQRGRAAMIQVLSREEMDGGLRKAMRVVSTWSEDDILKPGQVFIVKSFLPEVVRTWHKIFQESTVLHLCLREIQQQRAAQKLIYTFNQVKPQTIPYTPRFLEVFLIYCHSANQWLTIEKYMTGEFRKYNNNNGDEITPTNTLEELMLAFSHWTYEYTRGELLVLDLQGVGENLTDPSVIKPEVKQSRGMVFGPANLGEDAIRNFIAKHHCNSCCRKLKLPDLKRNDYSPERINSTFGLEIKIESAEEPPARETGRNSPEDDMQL

Target: T1, insulin receptor substrate 4 (IRS4) (human (endogenous in HEK293)) (UniProt O14654)
T1 sequence: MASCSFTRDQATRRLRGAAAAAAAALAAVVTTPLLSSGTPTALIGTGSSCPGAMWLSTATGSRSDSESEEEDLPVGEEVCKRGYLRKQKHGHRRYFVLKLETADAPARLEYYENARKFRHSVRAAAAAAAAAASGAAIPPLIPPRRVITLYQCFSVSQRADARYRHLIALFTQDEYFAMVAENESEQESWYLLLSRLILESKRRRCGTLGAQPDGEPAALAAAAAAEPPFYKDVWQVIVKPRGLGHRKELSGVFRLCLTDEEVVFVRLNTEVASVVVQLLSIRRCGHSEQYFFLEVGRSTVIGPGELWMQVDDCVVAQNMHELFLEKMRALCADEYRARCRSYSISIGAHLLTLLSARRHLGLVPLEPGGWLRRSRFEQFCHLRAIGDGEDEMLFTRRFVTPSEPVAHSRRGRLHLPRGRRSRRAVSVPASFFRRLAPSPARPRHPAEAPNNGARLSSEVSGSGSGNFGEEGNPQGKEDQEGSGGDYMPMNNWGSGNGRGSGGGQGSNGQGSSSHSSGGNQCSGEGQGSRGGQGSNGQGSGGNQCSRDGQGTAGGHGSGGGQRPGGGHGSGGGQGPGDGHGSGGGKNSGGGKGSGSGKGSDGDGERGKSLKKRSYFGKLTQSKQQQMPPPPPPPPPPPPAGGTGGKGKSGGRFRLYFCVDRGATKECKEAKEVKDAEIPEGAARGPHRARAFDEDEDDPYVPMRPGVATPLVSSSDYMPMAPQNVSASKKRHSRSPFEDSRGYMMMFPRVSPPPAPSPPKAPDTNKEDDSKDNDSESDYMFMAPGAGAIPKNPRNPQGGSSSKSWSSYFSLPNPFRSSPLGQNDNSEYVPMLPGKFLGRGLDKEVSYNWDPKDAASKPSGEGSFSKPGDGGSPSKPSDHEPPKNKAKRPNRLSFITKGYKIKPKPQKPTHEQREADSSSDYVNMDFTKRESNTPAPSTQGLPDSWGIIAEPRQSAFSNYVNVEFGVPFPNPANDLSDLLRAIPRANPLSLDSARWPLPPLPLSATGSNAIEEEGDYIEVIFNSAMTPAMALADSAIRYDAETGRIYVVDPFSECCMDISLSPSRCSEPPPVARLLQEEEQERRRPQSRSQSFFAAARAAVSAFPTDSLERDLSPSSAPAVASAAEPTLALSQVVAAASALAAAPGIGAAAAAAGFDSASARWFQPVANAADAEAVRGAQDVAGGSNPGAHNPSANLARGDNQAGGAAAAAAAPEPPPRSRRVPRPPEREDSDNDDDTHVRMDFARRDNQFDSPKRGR
Test: co-IP

“TRPM6 (pcDNA pDEST53 TRPM6 plasmid) (from UniProt Q9BX84 1-2022)” was tested, and the binding was “binds”.
